# Laboratory results: PubChem BioAssay AID652272 (Drosophila RNAi Screening Center, 2013)
# Screen: 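Genes whose knock-down decreases or increases Hedgehog reporter output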 (primary screen)
# Cells: Drosophila clone 8 (Cl8) cells
# Knock-down reagent: long dsRNA against Drosophila genes
# Detection: 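Firefly light from a Hedgehog-responsive ptc promoter reporter and Renilla reference light, both read on a plate reader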
# Scale: firefly Hh reporter signal: higher = more ptc reporter light; Renilla reference signal: higher = more Renilla control light
# Call rule: 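Called a hit if the two-replicate mean z-score lies below -2 or above +3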
# Meaning of the calls: active = hit: reporter lowered or raised; inactive = not a hit
# In all, the deposit lists about 21,000 reagents; this is an unselected part of those with a known target gene and a result. Of all reagents, 503 (2.4%) were called active. 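Raw plate light values, not normalised; calls rest on replicate z-scores that were not deposited; hits include reporter decreases as well as increases.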 No sequences are given here. Not given: the amount of reagent, the time to read-out.
Gene,amplicon,"firefly Hh reporter signal, replicate 1","firefly Hh reporter signal, replicate 2","firefly Hh reporter signal, replicate 3","Renilla reference signal, replicate 1","Renilla reference signal, replicate 2",call
Sidpn (similar to Deadpan),DRSC02056,1.64e5,93467,,6208,4352,inactive
CG14903,DRSC15024,1.24e5,1.02e5,,4290,2576,inactive
fus (fusilli),DRSC05569,1.14e5,2.95e5,,3155,11404,inactive
fus (fusilli),DRSC07107,1.10e5,79940,,5460,3384,inactive
CG8188,DRSC20090,1.39e5,3.52e5,,5370,13355,inactive
ebd2 (earthbound 2),DRSC11682,89392,87452,,3627,2412,inactive
mRpL40 (mitochondrial ribosomal protein L40),DRSC15749,65033,71273,,2217,2221,inactive
Hcf (Host cell factor),DRSC17143,2.12e5,96913,,3620,2506,inactive
CG5770,DRSC06954,1.73e5,1.04e5,,6704,4342,inactive
CG15461,DRSC20532,73719,2.55e5,,2529,10345,inactive
Cyp4d8 (Cytochrome P450 4d8),DRSC11131,76274,39619,,3706,1841,inactive
Top3beta (Topoisomerase 3beta),DRSC18724,71315,72461,,1699,1612,inactive
CycH (Cyclin H),DRSC11861,1.60e5,1.81e5,,5508,10161,inactive
MAGE,DRSC12504,78711,1.17e5,,2952,3223,inactive
Boh1 (Buddy of Hmr 1),DRSC14487,1.27e5,1.45e5,,2760,3512,inactive
CG15570,DRSC18058,81365,1.86e5,,2720,7130,inactive
CG16898,DRSC06635,92016,53799,,2354,3651,inactive
CG15894,DRSC18098,67283,1.78e5,,2375,6752,inactive
CG15894,DRSC18099,34857,51981,,1344,2449,inactive
CG3251,DRSC00586,89829,41280,,2468,3483,inactive
CG7546,DRSC08885,98368,2.41e5,,2809,10112,inactive
CG7546,DRSC10871,1.76e5,4.70e5,1.14e5,7020,28487,inactive
GlyRS (Glycyl-tRNA synthetase),DRSC10711,77824,67994,,3008,3117,inactive
CG42450,DRSC20022,64933,1.44e5,,1568,5997,inactive
Slimp (Seryl-tRNA synthetase-like insect mitochondrial protein),DRSC13656,51383,1.93e5,,13706,4385,inactive
to (takeout),DRSC17086,5.96e5,1.06e5,,26819,3217,inactive
Nos (Nitric oxide synthase),DRSC03381,84969,86136,,3613,3664,inactive
CG8508,DRSC16436,1.43e5,1.35e5,,5261,5335,inactive
CG7884,DRSC20065,55946,1.68e5,,1509,7773,inactive
CG10465,DRSC04848,57857,46941,,1638,4185,inactive
CG8141,DRSC16387,85981,87797,,2716,2368,inactive
Mps1 (Monopolar spindle 1),DRSC16273,1.02e5,1.18e5,,4629,4345,inactive
dlp (dally-like),DRSC10281,32049,40826,,1611,1568,inactive
dlp (dally-like),DRSC10472,37728,,,1508,1293,inactive
GlcAT-I (Glucuronyltransferase I),DRSC17307,4.22e5,1.34e5,,21418,2794,inactive
CG13931,DRSC08400,69033,35674,,2640,2507,inactive
NaCP60E (Na channel protein 60E),DRSC04307,1.15e5,1.24e5,,5005,4717,inactive
CG6180,DRSC02937,86533,73879,,3508,2875,inactive
CG33285,DRSC11463,1.76e5,,,3945,,inactive
Reck (Reversion-inducing-cysteine-rich protein with kazal motifs),DRSC10504,1.16e5,76290,,4541,3056,inactive
Reck (Reversion-inducing-cysteine-rich protein with kazal motifs),DRSC10505,93811,,,1472,2562,inactive
TrpA1 (Transient receptor potential cation channel A1),DRSC10544,52603,44848,,7120,3776,inactive
CG14759,DRSC06494,97264,50688,,2413,5347,inactive
Ran-like,DRSC10918,99126,51232,,3897,2136,inactive
CG7512,DRSC10863,34576,40244,51584,3115,2841,inactive
t-cup (tetleys-cup),DRSC01254,5.82e5,2.28e5,,23595,11859,inactive
RagA-B (Ras-related GTP binding A/B),DRSC14450,96197,57692,,4264,2692,inactive
out (outsiders),DRSC19347,1.28e5,87810,,3181,2073,inactive
CG13928,DRSC08397,63818,30219,,2530,2880,inactive
mask (multiple ankyrin repeats single KH domain),DRSC15370,4.70e5,61766,,23073,2532,inactive
mask (multiple ankyrin repeats single KH domain),DRSC16005,79344,43276,,3616,2074,inactive
mask (multiple ankyrin repeats single KH domain),DRSC16018,78048,38412,,4148,2509,active
CG3735,DRSC04411,58568,50486,,2579,2329,inactive
CG10931,DRSC06015,1.09e5,39318,,3298,2905,inactive
Moca-cyp,DRSC15364,1.10e5,1.34e5,,1405,4049,inactive
CG4701,DRSC01952,84173,54425,,2513,5689,inactive
Hsp110 (Heat shock protein 110),DRSC11186,70119,35772,,3158,1904,inactive
